Record: PubChem BioAssay AID1224831 (NIAID, 2016)

Screen: 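Genes that support or restrain LPS-induced TNF-alpha reporter activity in macrophage-like cells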 (follow-up of hits)
Cells: human THP-1 B5 monocytic leukaemia cells carrying a TNF promoter luciferase reporter, made macrophage-like with PMA
Reagents: single siRNA against human genes, 50 nM
Duration: about 68 h of knock-down, then 4 h LPS
Challenge: LPS (Salmonella minnesota, TLR-grade) at 10 ng/ml for 4 h; PMA 5 ng/ml present during knock-down
Measured: 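Firefly to renilla luciferase ratio of a TNF promoter reporter after 4 h LPS, scaled to plate median, turned into robust z-score, averaged over replicates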
Scale: TNF reporter z-score: higher = stronger LPS-induced TNF reporter signal; z-score, median over gene's siRNAs: higher = stronger TNF reporter signal across the gene's siRNAs
Call rule: 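Active when the replicate mean z-score is about -1 or lower, or about 1.5 or higher; lowered and raised TNF reporter signal both count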
Meaning of the calls: active = changed TNF reporter (either direction); inactive = little change
The whole screen tested about 3,500 reagents; below is a random part of them. 731 of them (21%) count as active. 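Active means either lowered or raised reporter signal; the gene-median score did not drive the per-siRNA calls.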 The numbers tell different reagents against one gene apart. Reagent sequences are not shown.

| gene symbol | reagent no. | TNF reporter z-score, replicate mean | z-score, median over gene's siRNAs | outcome |
| --- | --- | --- | --- | --- |
| HAPLN3 | 1 | 0.37 | 1.57 | inactive |
| HAPLN3 | 2 | 1.92 | 1.57 | active |
| HAPLN3 | 3 | 1.23 | 1.57 | inactive |
| HAPLN3 | 4 | 4.74 | 1.57 | active |
| HAPLN3 | 5 | 6.07 | 1.57 | active |
| HAPLN3 | 6 | -0.67 | 1.57 | inactive |
| E4F1 | 1 | -0.49 | 0.285 | inactive |
| E4F1 | 2 | -0.11 | 0.285 | inactive |
| E4F1 | 3 | 1.02 | 0.285 | inactive |
| E4F1 | 4 | -1.08 | 0.285 | active |
| E4F1 | 5 | 0.68 | 0.285 | inactive |
| E4F1 | 6 | 1.04 | 0.285 | inactive |
| VPS54 | 1 | 0.33 | 0.165 | inactive |
| VPS54 | 2 | -0.47 | 0.165 | inactive |
| VPS54 | 3 | 0 | 0.165 | inactive |
| VPS54 | 4 | -0.17 | 0.165 | inactive |
| VPS54 | 5 | 1.13 | 0.165 | inactive |
| VPS54 | 6 | 0.65 | 0.165 | inactive |
| FBXO2 | 1 | -0.45 | 0.64 | inactive |
| FBXO2 | 2 | 1.32 | 0.64 | inactive |
| FBXO2 | 3 | 1.26 | 0.64 | inactive |
| FBXO2 | 4 | 0.02 | 0.64 | inactive |
| FBXO2 | 5 | -0.02 | 0.64 | inactive |
| FBXO2 | 6 | 2.21 | 0.64 | active |
| MAN1B1 | 1 | -1.08 | 0.365 | active |
| MAN1B1 | 2 | 9.49 | 0.365 | active |
| MAN1B1 | 3 | 0.77 | 0.365 | inactive |
| MAN1B1 | 4 | -0.12 | 0.365 | inactive |
| MAN1B1 | 5 | -0.04 | 0.365 | inactive |
| MAN1B1 | 6 | 0.81 | 0.365 | inactive |
| MSRB3 | 1 | 0.87 | 0.705 | inactive |
| MSRB3 | 2 | 0.27 | 0.705 | inactive |
| MSRB3 | 3 | 0.54 | 0.705 | inactive |
| MSRB3 | 4 | 1.15 | 0.705 | inactive |
| MSRB3 | 5 | 1.75 | 0.705 | active |
| MSRB3 | 6 | -0.35 | 0.705 | inactive |
| SDHD | 1 | 1.55 | 1.43 | active |
| SDHD | 2 | 1.7 | 1.43 | active |
| SDHD | 3 | 1.31 | 1.43 | inactive |
| SDHD | 4 | 2.12 | 1.43 | active |
| SDHD | 5 | -2.16 | 1.43 | active |
| SDHD | 6 | -0.95 | 1.43 | inactive |
| FAM241A | 1 | 0.16 | 0.05 | inactive |
| FAM241A | 2 | -0.68 | 0.05 | inactive |
| FAM241A | 3 | 0.2 | 0.05 | inactive |
| FAM241A | 4 | 0.32 | 0.05 | inactive |
| FAM241A | 5 | -0.06 | 0.05 | inactive |
| FAM241A | 6 | -0.38 | 0.05 | inactive |
| MTOR | 1 | 0.6 | 0.485 | inactive |
| MTOR | 2 | 0.98 | 0.485 | inactive |
| MTOR | 3 | 0.37 | 0.485 | inactive |
| MTOR | 4 | -0.55 | 0.485 | inactive |
| MTOR | 5 | 0.21 | 0.485 | inactive |
| MTOR | 6 | 0.72 | 0.485 | inactive |
| SMC3 | 1 | -0.66 | -0.63 | inactive |
| SMC3 | 2 | -0.54 | -0.63 | inactive |
| SMC3 | 3 | -0.6 | -0.63 | inactive |
| SMC3 | 4 | -1.09 | -0.63 | active |
| SMC3 | 5 | -1.11 | -0.63 | active |
| SMC3 | 6 | 0.07 | -0.63 | inactive |
| MXD3 | 1 | -1.07 | 0.64 | active |
| MXD3 | 2 | 4.24 | 0.64 | active |
| MXD3 | 3 | 0.33 | 0.64 | inactive |
| MXD3 | 4 | 4.08 | 0.64 | active |
| MXD3 | 5 | 0.3 | 0.64 | inactive |
| MXD3 | 6 | 0.95 | 0.64 | inactive |
| GPR15LG | 1 | -0.07 | -0.56 | inactive |
| GPR15LG | 2 | -1.84 | -0.56 | active |
| GPR15LG | 3 | -1.81 | -0.56 | active |
| GPR15LG | 4 | -0.7 | -0.56 | inactive |
| GPR15LG | 5 | 0.35 | -0.56 | inactive |
| GPR15LG | 6 | -0.42 | -0.56 | inactive |
| SDE2 | 1 | -0.63 | 0.04 | inactive |
| SDE2 | 2 | -0.34 | 0.04 | inactive |
| SDE2 | 3 | 0.13 | 0.04 | inactive |
| SDE2 | 4 | -0.05 | 0.04 | inactive |
| SDE2 | 5 | 0.97 | 0.04 | inactive |
| SDE2 | 6 | 0.55 | 0.04 | inactive |
| IL3RA | 1 | 0.2 | 0.525 | inactive |
| IL3RA | 2 | 2.18 | 0.525 | active |
| IL3RA | 3 | 1.84 | 0.525 | active |
| IL3RA | 4 | -0.22 | 0.525 | inactive |
| IL3RA | 5 | 0.85 | 0.525 | inactive |
| IL3RA | 6 | 0.18 | 0.525 | inactive |

A few values from the entries so far:
For “TNF reporter z-score, replicate mean”, SDHD #5 is entered as -2.16
For “TNF reporter z-score, replicate mean”, MXD3 #4 has 4.08
HAPLN3 #1, z-score, median over gene's siRNAs → 1.57
FBXO2 #5, z-score, median over gene's siRNAs = 0.64
